The supplement of paper PMC9233669
Variants at the floor of the assay are shown more often than the library holds them.

Key:
biotinyl-Trp-oxazolone = experiment: self-aminoacylation, catalytic enhancement (BWO) (fold over background); higher = more active; k-Seq, kA / k0A0; sequences stand for … in GGGAAUGGAUCCACAUCUACGAAUUC…UUCACUGCAGACUUGACGAAGCUG
Outline: (§1)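 Each biotinyl-aminoacyl-oxazolone, at 2–1250 μM, was incubated with mutagenized RNA pools (0.43 μM) carrying a 21-nt variable region. The 50 μL reactions contained HEPES/NaCl/KCl/MgCl2/CaCl2 buffer with 5% acetonitrile at pH 6.9–7.0 and ran for 90 minutes at room temperature. After streptavidin capture, RNA was measured by qPCR in triplicate and by Illumina sequencing, and catalytic enhancement was calculated as median kA over the uncatalyzed rate from a pseudo-first-order fit of per-sequence fraction reacted.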

biotinyl-Leu-oxazolone = experiment: self-aminoacylation, catalytic enhancement (BLO) (fold over background); higher = more active; k-Seq, kA / k0A0; sequences stand for … in GGGAAUGGAUCCACAUCUACGAAUUC…UUCACUGCAGACUUGACGAAGCUG
Outline: as §1

biotinyl-Val-oxazolone = experiment: self-aminoacylation, catalytic enhancement (BVO) (fold over background); higher = more active; k-Seq, kA / k0A0; sequences stand for … in GGGAAUGGAUCCACAUCUACGAAUUC…UUCACUGCAGACUUGACGAAGCUG
Outline: as §1

biotinyl-Ile-oxazolone = experiment: self-aminoacylation, catalytic enhancement (BIO) (fold over background); higher = more active; k-Seq, kA / k0A0; sequences stand for … in GGGAAUGGAUCCACAUCUACGAAUUC…UUCACUGCAGACUUGACGAAGCUG
Outline: as §1

biotinyl-Met-oxazolone = experiment: self-aminoacylation, catalytic enhancement (BMO) (fold over background); higher = more active; k-Seq, kA / k0A0; sequences stand for … in GGGAAUGGAUCCACAUCUACGAAUUC…UUCACUGCAGACUUGACGAAGCUG
Outline: as §1

biotinyl-Phe-oxazolone = experiment: self-aminoacylation, catalytic enhancement (BFO) (fold over background); higher = more active; k-Seq, kA / k0A0; sequences stand for … in GGGAAUGGAUCCACAUCUACGAAUUC…UUCACUGCAGACUUGACGAAGCUG
Outline: as §1

Sequence	self-aminoacylation (biotinyl-Trp-oxazolone)	self-aminoacylation (biotinyl-Leu-oxazolone)	self-aminoacylation (biotinyl-Val-oxazolone)	self-aminoacylation (biotinyl-Ile-oxazolone)	self-aminoacylation (biotinyl-Met-oxazolone)	self-aminoacylation (biotinyl-Phe-oxazolone)
CUACACAUCAAGCAAUCGGUC [Fam1B.1 aminoacylation ribozyme variant]	0.79	0.682	0.681	0.799	0.673	1.21
CUACACCUCAAGCAAUCGGUC [Fam1B.1 aminoacylation ribozyme variant]	1.41	0.8	0.976	1.01	0.869	2.14
CUACACUUCAAGCAAUCGGUU [Fam1B.1 aminoacylation ribozyme variant]	7.05	1.46	1.27	1.29	1.47	9.78
CUACAUCAAACAAUAGGUCUG [Fam1A.1 aminoacylation ribozyme variant]	0.771	0.832	1.01	0.998	1.18	1.38
CUACAUCAAACAAUCAGUCUG [Fam1A.1 aminoacylation ribozyme variant]	0.597	0.572	0.73	0.75	0.664	1.39
CUACAUCAAACAAUCGAUCUG [Fam1A.1 aminoacylation ribozyme variant]	0.654	0.661	0.801	0.809	0.74	0.948
CUACAUCAAACAAUUGGUCUG [Fam1A.1 aminoacylation ribozyme variant]	0.87	1.37	1.12	1.24	1.33	1.07
CUACAUCAAACAUUCGGUCUG [Fam1A.1 aminoacylation ribozyme variant]	1.4	1.38	1.37	1.41	1.37	1.48
CUACAUCAAUCAAUCGGUCUG [Fam1A.1 aminoacylation ribozyme variant]	1.06	0.551	0.742	0.83	0.701	1.58
CUACCUCAAACAAUGGGUCUG [Fam1A.1 aminoacylation ribozyme variant]	1.38	1.06	0.988	1.38	1.07	1.27
CUACCUCAAGCAAUCGGUCUG [Fam1A.1 aminoacylation ribozyme variant]	1.24	0.991	1.02	1.02	0.963	1.26
CUACGCUUCAAGCAAUCGGUC [Fam1B.1 aminoacylation ribozyme variant]	29.9	1.86	1.06	0.964	1.14	59.9
CUACGUCAGACAAUCGGUCUG [Fam1A.1 aminoacylation ribozyme variant]	0.99	1.28	1.42	1.61	1.86	1.67
CUACUAAAAACAAUCGGUCUG [Fam1A.1 aminoacylation ribozyme variant]	0.619	0.561	0.765	0.741	0.661	0.696
CUACUACAAACAAUCGGCCUG [Fam1A.1 aminoacylation ribozyme variant]	0.918	1.63	1.09	1.36	1.05	1.03
CUACUACAAACAAUUGGUCUG [Fam1A.1 aminoacylation ribozyme variant]	0.749	0.92	0.977	0.978	0.995	0.799
CUACUACAAAUAAUCGGUCUG [Fam1A.1 aminoacylation ribozyme variant]	0.746	0.756	0.769	0.722	0.581	0.93
CUACUACACACAAUCGGUCUG [Fam1A.1 aminoacylation ribozyme variant]	0.718	0.768	0.681	0.846	0.641	0.948
CUACUCCAAACAAUUGGUCUG [Fam1A.1 aminoacylation ribozyme variant]	0.642	1.02	1.03	1.13	1.09	0.67
CUACUCCAUACAAUCGGUCUG [Fam1A.1 aminoacylation ribozyme variant]	0.549	0.628	0.751	0.833	0.719	0.859
CUACUGCAAACAAACGGUCUG [Fam1A.1 aminoacylation ribozyme variant]	1.29	0.773	1.01	0.965	0.932	0.874
